Consider 2 substances from paper PMC4821554.

By UniProt entry, the sequences of proteins in these tests, tags left out. Where a name states a change or a piece, a line headed by the entry shows the natural chain unless it says otherwise.
UniProt P43354: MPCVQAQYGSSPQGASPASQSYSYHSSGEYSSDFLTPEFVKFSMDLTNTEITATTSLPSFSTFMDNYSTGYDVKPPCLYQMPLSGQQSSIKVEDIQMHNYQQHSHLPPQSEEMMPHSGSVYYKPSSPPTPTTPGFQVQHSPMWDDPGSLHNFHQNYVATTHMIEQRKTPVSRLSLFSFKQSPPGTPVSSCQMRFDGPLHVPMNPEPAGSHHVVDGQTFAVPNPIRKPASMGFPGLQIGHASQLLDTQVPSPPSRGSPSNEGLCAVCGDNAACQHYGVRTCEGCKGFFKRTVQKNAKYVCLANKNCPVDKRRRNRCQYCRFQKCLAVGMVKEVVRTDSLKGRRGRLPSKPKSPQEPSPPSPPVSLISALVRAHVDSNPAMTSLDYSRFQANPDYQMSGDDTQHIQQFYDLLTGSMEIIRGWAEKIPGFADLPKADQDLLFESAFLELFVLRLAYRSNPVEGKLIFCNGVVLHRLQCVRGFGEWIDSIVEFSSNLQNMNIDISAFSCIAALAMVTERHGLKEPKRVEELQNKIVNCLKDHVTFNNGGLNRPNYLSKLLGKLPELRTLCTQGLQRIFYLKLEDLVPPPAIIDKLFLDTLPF
UniProt Q9WU82: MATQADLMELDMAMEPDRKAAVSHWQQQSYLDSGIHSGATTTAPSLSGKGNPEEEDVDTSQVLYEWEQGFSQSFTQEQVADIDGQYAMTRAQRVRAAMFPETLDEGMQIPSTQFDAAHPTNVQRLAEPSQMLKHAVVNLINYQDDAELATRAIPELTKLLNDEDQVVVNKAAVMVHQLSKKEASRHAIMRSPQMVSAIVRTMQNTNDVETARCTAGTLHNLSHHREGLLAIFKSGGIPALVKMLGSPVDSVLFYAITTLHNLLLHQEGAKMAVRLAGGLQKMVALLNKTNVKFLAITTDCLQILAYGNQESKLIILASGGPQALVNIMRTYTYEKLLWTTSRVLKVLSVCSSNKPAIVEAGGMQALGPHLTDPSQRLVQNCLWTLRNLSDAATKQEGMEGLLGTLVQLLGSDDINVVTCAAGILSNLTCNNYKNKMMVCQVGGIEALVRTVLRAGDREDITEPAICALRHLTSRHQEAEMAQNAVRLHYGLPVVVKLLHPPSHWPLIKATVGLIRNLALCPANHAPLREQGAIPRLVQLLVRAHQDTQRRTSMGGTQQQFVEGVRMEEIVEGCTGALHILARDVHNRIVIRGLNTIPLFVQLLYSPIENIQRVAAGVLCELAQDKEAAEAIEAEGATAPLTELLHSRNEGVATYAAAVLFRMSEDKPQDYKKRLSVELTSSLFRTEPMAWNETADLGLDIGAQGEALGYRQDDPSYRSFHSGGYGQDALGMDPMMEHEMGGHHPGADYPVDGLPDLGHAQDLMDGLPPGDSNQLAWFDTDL
UniProt P35222: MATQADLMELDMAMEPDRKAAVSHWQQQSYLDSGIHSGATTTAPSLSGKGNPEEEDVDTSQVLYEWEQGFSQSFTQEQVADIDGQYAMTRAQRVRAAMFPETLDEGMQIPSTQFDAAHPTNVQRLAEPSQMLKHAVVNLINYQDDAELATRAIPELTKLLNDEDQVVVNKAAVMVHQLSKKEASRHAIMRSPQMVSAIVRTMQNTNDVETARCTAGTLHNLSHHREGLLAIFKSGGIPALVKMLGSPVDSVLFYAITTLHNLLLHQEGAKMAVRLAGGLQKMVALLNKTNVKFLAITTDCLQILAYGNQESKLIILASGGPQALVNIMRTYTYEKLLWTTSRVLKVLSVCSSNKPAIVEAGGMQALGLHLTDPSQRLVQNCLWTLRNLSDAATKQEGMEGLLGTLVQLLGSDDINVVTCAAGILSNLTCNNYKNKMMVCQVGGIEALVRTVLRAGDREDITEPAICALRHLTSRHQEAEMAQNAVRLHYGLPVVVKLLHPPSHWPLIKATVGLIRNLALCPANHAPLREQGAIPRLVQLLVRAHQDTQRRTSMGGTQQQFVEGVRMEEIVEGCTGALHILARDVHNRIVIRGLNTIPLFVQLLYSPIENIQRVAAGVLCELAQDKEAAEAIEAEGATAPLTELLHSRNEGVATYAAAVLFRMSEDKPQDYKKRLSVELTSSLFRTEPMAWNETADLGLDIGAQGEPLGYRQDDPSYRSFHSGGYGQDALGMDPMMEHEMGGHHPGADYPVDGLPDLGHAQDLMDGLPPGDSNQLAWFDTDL

In assay [1] the target is GST-fused AF1 domain of Nurr1 (human) (UniProt P43354). The experiment in a line: pull-down; GST-fused Nurr1 domains with midbrain of rat; preparation of the sample not told; only the target purified.
Assay [2] shares this target. Put plainly: pull-down; GST-fused Nurr1 domains on glutathione-Sepharose beads incubated with nuclear proteins of PC12 cells transfected with β-catenin vectors for 24 hours; wash 50 mM Tris-HCl pH 7.3, 150 mM NaCl, 3 mM MgCl2, 1 mM EDTA, 1 mM DTT, 0.5% Triton X-100; only the target purified.

No constants are given. Whether binding was seen depends on the method and setting. In cells and extracts the contact can be indirect. Binding calls can cover weak binding; strength is not graded here.

For “β-catenin of the midbrain of rat (from UniProt Q9WU82 1-781)”, the binding entry in assay [1] was “binds”.

As to “β-catenin (full-length human), expressed from pShuttle-IRES-hrGFP-2 (from UniProt P35222 1-781)”, the binding result in assay [2] is listed as “binds”.
